Assay results from publication PMC7854729 (Nature Communications, 2021).
Where “and” joins values, the source holds several entries; their conditions need not be identical. Identical values can stand only once. Like-named read-outs stand apart in the source and are kept apart here. The source gives many values for each of these; only a part stands here. Where a SMILES comes first, the peptide text is derived from it.

Target: T1, PLpro-WT (Severe acute respiratory syndrome coronavirus 2, UniProt P0DTD1)
T1 construct: PLpro is a domain of Nsp3—a large multidomain protein; made in house; host or cells: E. coli BL21(DE3)-Gold
Type: biochemical

Q: For CC(=O)N[C@@H](CC(C)C)C(=O)N[C@@H](CCCCN)C(=O)NCC(=O)NCC(=O)Nc1ccc2c(C)cc(=O)oc2c1 [probe] (HELM PEPTIDE1{[ac].L.K.G.G.[Cc1cc(=O)oc2cc(N[*:1])ccc12]}$$$$V2.0), which “fluorescence normalised to probe only” value (0.3 M PLP, time point 23) is on record?
A: Its value is 19.75 and 19.9792 and 21.3125.

Q: And the fluorescence (0.3 M PLP, time point 24)?
A: The fluorescence was 972 and 989 and 1060.

Q: And the “fluorescence normalised to probe only” value (0.3 M PLP, time point 24)?
A: The value was 20.25 and 20.6042 and 22.0833.

Q: And the fluorescence (0.3 M PLP, time point 25)?
A: Its fluorescence is 1013 and 1022 and 1082.

Q: And the “fluorescence normalised to probe only” value (0.3 M PLP, time point 25)?
A: The value was 21.1042 and 21.2917 and 22.5417.

Q: What about the fluorescence (0.3 M PLP, time point 26) of the same molecule?
A: The fluorescence was 1028 and 1039 and 1111.

Q: What about the “fluorescence normalised to probe only” value (0.3 M PLP, time point 26) of the same molecule?
A: The value was 21.4167 and 21.6458 and 23.1458.

Q: What about the fluorescence (0.3 M PLP, time point 27) of the same molecule?
A: Its fluorescence is 1059 and 1068 and 1137.

Q: And the “fluorescence normalised to probe only” value (0.3 M PLP, time point 27)?
A: Its value is 22.0625 and 22.25 and 23.6875.

Q: What about the fluorescence (0.3 M PLP, time point 28) of the same molecule?
A: Its fluorescence is 1077 and 1085 and 1174.

Q: What about the “fluorescence normalised to probe only” value (0.3 M PLP, time point 28) of the same molecule?
A: Its value is 22.4375 and 22.6042 and 24.4583.

Q: And the fluorescence (0.3 M PLP, time point 29)?
A: The fluorescence was 1103 and 1112 and 1201.

Q: And the “fluorescence normalised to probe only” value (0.3 M PLP, time point 29)?
A: The value was 22.9792 and 23.1667 and 25.0208.

Q: And the fluorescence (0.3 M PLP, time point 30)?
A: The fluorescence was 1128 and 1137 and 1218.

Q: What about the “fluorescence normalised to probe only” value (0.3 M PLP, time point 30) of the same molecule?
A: Its value is 23.5 and 23.6875 and 25.375.

Q: And the fluorescence (0.3 M PLP, time point 31)?
A: The fluorescence was 1146 and 1159 and 1248.

Q: What about the “fluorescence normalised to probe only” value (0.3 M PLP, time point 31) of the same molecule?
A: The value was 23.875 and 24.1458 and 26.

Q: What about the fluorescence (0.3 M PLP, time point 32) of the same molecule?
A: The fluorescence was 1167 and 1179 and 1275.

Q: What about the “fluorescence normalised to probe only” value (0.3 M PLP, time point 32) of the same molecule?
A: Its value is 24.3125 and 24.5625 and 26.5625.

Q: What about the fluorescence (0.3 M PLP, time point 33) of the same molecule?
A: Its fluorescence is 1198 and 1206 and 1310.

Q: And the “fluorescence normalised to probe only” value (0.3 M PLP, time point 33)?
A: The value was 24.9583 and 25.125 and 27.2917.

Q: And the fluorescence (0.3 M PLP, time point 34)?
A: Its fluorescence is 1215 and 1226 and 1328.

Q: And the “fluorescence normalised to probe only” value (0.3 M PLP, time point 34)?
A: Its value is 25.3125 and 25.5417 and 27.6667.

Q: What about the fluorescence (0.3 M PLP, time point 35) of the same molecule?
A: The fluorescence was 1238 and 1249 and 1339.

Q: What about the “fluorescence normalised to probe only” value (0.3 M PLP, time point 35) of the same molecule?
A: The value was 25.7917 and 26.0208 and 27.8958.

Q: What about the fluorescence (0.3 M PLP, time point 36) of the same molecule?
A: Its fluorescence is 1264 and 1272 and 1373.

Q: And the “fluorescence normalised to probe only” value (0.3 M PLP, time point 36)?
A: Its value is 26.3333 and 26.5 and 28.6042.

Q: What about the fluorescence (0.3 M PLP, time point 37) of the same molecule?
A: Its fluorescence is 1285 and 1290 and 1393.

Q: What about the “fluorescence normalised to probe only” value (0.3 M PLP, time point 37) of the same molecule?
A: Its value is 26.7708 and 26.875 and 29.0208.

Q: And the fluorescence (0.3 M PLP, time point 38)?
A: Its fluorescence is 1306 and 1311 and 1412.

Q: What about the “fluorescence normalised to probe only” value (0.3 M PLP, time point 38) of the same molecule?
A: Its value is 27.2083 and 27.3125 and 29.4167.

Q: What about the fluorescence (0.5 M PLP, time point 1) of the same molecule?
A: Its fluorescence is 207 and 209.

Q: And the “fluorescence normalised to probe only” value (0.5 M PLP, time point 1)?
A: Its value is 4.3125 and 4.354.

Q: And the fluorescence (0.5 M PLP, time point 2)?
A: The fluorescence was 318 and 315 and 316.

Q: And the “fluorescence normalised to probe only” value (0.5 M PLP, time point 2)?
A: The value was 6.625 and 6.5625 and 6.583.

Q: And the fluorescence (0.5 M PLP, time point 3)?
A: Its fluorescence is 425 and 423 and 418.

Q: And the “fluorescence normalised to probe only” value (0.5 M PLP, time point 3)?
A: The value was 8.854 and 8.8125 and 8.708.

Q: What about the fluorescence (0.5 M PLP, time point 4) of the same molecule?
A: The fluorescence was 524 and 522.

Q: What about the “fluorescence normalised to probe only” value (0.5 M PLP, time point 4) of the same molecule?
A: The value was 10.9167 and 10.875.

Q: What about the fluorescence (0.5 M PLP, time point 5) of the same molecule?
A: The fluorescence was 617 and 622 and 614.

Q: And the “fluorescence normalised to probe only” value (0.5 M PLP, time point 5)?
A: The value was 12.8542 and 12.9583 and 12.7917.

Q: And the fluorescence (0.5 M PLP, time point 6)?
A: The fluorescence was 716 and 715 and 708.

Q: What about the “fluorescence normalised to probe only” value (0.5 M PLP, time point 6) of the same molecule?
A: Its value is 14.9167 and 14.8958 and 14.75.

Q: And the fluorescence (0.5 M PLP, time point 7)?
A: The fluorescence was 805 and 803 and 798.

Q: And the “fluorescence normalised to probe only” value (0.5 M PLP, time point 7)?
A: Its value is 16.7708 and 16.7292 and 16.625.

Q: And the “fluorescence normalised to probe only” value (0.5 M PLP, time point 14)?
A: Its value is 28.2917 and 27.6458.

Q: And the fluorescence (0.5 M PLP, time point 15)?
A: Its fluorescence is 1412 and 1425 and 1395.

Q: What about the “fluorescence normalised to probe only” value (0.5 M PLP, time point 15) of the same molecule?
A: The value was 29.4167 and 29.6875 and 29.0625.

Q: And the fluorescence (0.5 M PLP, time point 16)?
A: Its fluorescence is 1484 and 1493 and 1454.

Q: What about the “fluorescence normalised to probe only” value (0.5 M PLP, time point 16) of the same molecule?
A: Its value is 30.9167 and 31.1042 and 30.2917.

Q: And the fluorescence (0.5 M PLP, time point 17)?
A: The fluorescence was 1539 and 1557 and 1517.

Q: And the “fluorescence normalised to probe only” value (0.5 M PLP, time point 17)?
A: The value was 32.0625 and 32.4375 and 31.6042.

Q: What about the fluorescence (0.5 M PLP, time point 18) of the same molecule?
A: The fluorescence was 1594 and 1610 and 1580.

Q: And the “fluorescence normalised to probe only” value (0.5 M PLP, time point 18)?
A: Its value is 33.2083 and 33.5417 and 32.9167.

Q: What about the fluorescence (0.5 M PLP, time point 19) of the same molecule?
A: The fluorescence was 1654 and 1673 and 1634.

Q: And the “fluorescence normalised to probe only” value (0.5 M PLP, time point 19)?
A: The value was 34.4583 and 34.8542 and 34.0417.

Q: And the fluorescence (0.5 M PLP, time point 20)?
A: Its fluorescence is 1711 and 1730 and 1689.

Q: What about the “fluorescence normalised to probe only” value (0.5 M PLP, time point 20) of the same molecule?
A: Its value is 35.6458 and 36.0417 and 35.1875.

Q: And the fluorescence (0.5 M PLP, time point 21)?
A: Its fluorescence is 1764 and 1785 and 1742.

Q: And the “fluorescence normalised to probe only” value (0.5 M PLP, time point 21)?
A: The value was 36.75 and 37.1875 and 36.2917.

Q: And the fluorescence (0.5 M PLP, time point 22)?
A: Its fluorescence is 1821 and 1835 and 1797.

Q: What about the “fluorescence normalised to probe only” value (0.5 M PLP, time point 22) of the same molecule?
A: Its value is 37.9375 and 38.2292 and 37.4375.

Q: What about the fluorescence (0.5 M PLP, time point 23) of the same molecule?
A: The fluorescence was 1880 and 1890 and 1848.

Q: What about the “fluorescence normalised to probe only” value (0.5 M PLP, time point 23) of the same molecule?
A: The value was 39.1667 and 39.375 and 38.5.

Q: What about the fluorescence (0.5 M PLP, time point 24) of the same molecule?
A: Its fluorescence is 1924 and 1943 and 1901.

Q: What about the “fluorescence normalised to probe only” value (0.5 M PLP, time point 24) of the same molecule?
A: The value was 40.0833 and 40.4792 and 39.6042.

Q: What about the fluorescence (0.5 M PLP, time point 25) of the same molecule?
A: The fluorescence was 1964 and 1992 and 1948.

Q: What about the “fluorescence normalised to probe only” value (0.5 M PLP, time point 25) of the same molecule?
A: Its value is 40.9167 and 41.5 and 40.5833.

Q: What about the fluorescence (0.5 M PLP, time point 26) of the same molecule?
A: Its fluorescence is 2017 and 2029 and 1997.

Q: And the “fluorescence normalised to probe only” value (0.5 M PLP, time point 26)?
A: Its value is 42.0208 and 42.2708 and 41.6042.

Q: And the fluorescence (0.5 M PLP, time point 27)?
A: The fluorescence was 2061 and 2083 and 2030.

Q: What about the “fluorescence normalised to probe only” value (0.5 M PLP, time point 27) of the same molecule?
A: The value was 42.9375 and 43.3958 and 42.2917.

Q: And the fluorescence (0.5 M PLP, time point 28)?
A: The fluorescence was 2102 and 2125 and 2079.

Q: What about the “fluorescence normalised to probe only” value (0.5 M PLP, time point 28) of the same molecule?
A: The value was 43.7917 and 44.2708 and 43.3125.

Q: What about the fluorescence (0.5 M PLP, time point 29) of the same molecule?
A: The fluorescence was 2139 and 2169 and 2111.

Q: And the “fluorescence normalised to probe only” value (0.5 M PLP, time point 29)?
A: Its value is 44.5625 and 45.1875 and 43.9792.

Q: And the fluorescence (0.5 M PLP, time point 30)?
A: Its fluorescence is 2187 and 2206 and 2147.

Q: And the “fluorescence normalised to probe only” value (0.5 M PLP, time point 30)?
A: Its value is 45.5625 and 45.9583 and 44.7292.
